Test: Interference of dye in spotting buffer with chemiluminescent micro-spot immunoassay
Details: dye added to spotting buffer; produced pale colour on the substrate

For Fast Yellow, the “Interference with the chemiluminescent micro-spot immunoassay” value was “non-interfering”.

Reference: patent publication US20090233811A1, “Manufacture of Array Chips” (Randox Laboratories Ltd., priority 2005, published 2009)
